According to PubChem BioAssay AID540276 (National Center for Advancing Translational Sciences (NCATS), 2011):
Several values for one entry are separate records, joined by “and”; a condition that tells them apart may be missing. Equal entries are not always repeated. Screen size: about 300,000 compounds; about 5,400 (1.8%) were called active. This list was built around the results that the source calls inconclusive (neither active nor inactive); the mix of calls is not that of the screen. Calls follow the shape of the full dose curve; tested in HEK293 cells. A potency beside an inconclusive call is a rough fit, not a confirmed value.

Experiment: qHTS for inhibitors of binding or entry into cells for Marburg Virus
Details: Marburg virus pseudotyped entry inhibition, cell reporter; series mostly up to 37.8 µM
Potency is read from the fitted curve at half-maximal effect.

SMILES | Potency
Cc1cccc(NC(=O)c2ccc(-c3ccccc3)s2)c1 | inconclusive: 11.2 µM [activator, partial curve]
Cc1ccc(C)c(NC(=O)C(NCC(C)(C)N2CCOCC2)c2ccccc2)c1 (centres undefined) | inconclusive: 14.1 µM [inhibitor, single point]
COc1ccc(CN2CN(S(=O)(=O)c3ccccc3)c3nc4ccccc4nc32)cc1 | inactive
CC1(C)C=Cc2c(c3ccccc3[nH]c2=O)O1 | inconclusive: 0.708 µM [activator, full curve, poor fit]
CN(C)c1ccc(C2CC(c3cccc(NS(C)(=O)=O)c3)=NN2C(=O)c2ccccc2)cc1 (centres undefined) | inconclusive: 12.6 µM [inhibitor, partial curve, poor fit]
Cc1cc(C)cc(C(=O)NCC(=O)OCC(=O)Nc2cccnc2Cl)c1 | inactive
CC(C)OC(=O)n1c2c(oc1=S)CCCC2 | inconclusive: 2.06 µM [inhibitor, partial curve]
CCc1ccc(NC(=O)c2ccc(-c3ccccc3)s2)cc1 | inactive
CCC1CCCCN1CCCNC(=O)Cn1ncn2nc(-c3ccc(OC)cc3)cc2c1=O (centres undefined) | inconclusive: 11.2 µM [inhibitor, single point]
CCn1c(C)nc2cc(C(=O)N/N=C/c3cccc(O)c3O)ccc21 | inconclusive: 20 µM [inhibitor, single point]
O=C(COc1ccccc1Cl)Nc1nc(-c2ccncc2)cs1 | inconclusive: 35.5 µM [inhibitor, single point]
O=C(Nc1cccc(S(=O)(=O)Nc2ccccc2F)c1)c1ccc2ccccc2n1 | inconclusive: 35.5 µM [inhibitor, single point]
CCCCNC1C(CC)C(CCC)C(C#N)(C#N)C1(C#N)C#N (centres undefined) | inconclusive: 35.5 µM [inhibitor, single point]
CCN(CC)CCNC(=O)c1ccc(NC(=O)/C=C/c2ccc3ccccc3n2)cc1 | inconclusive: 35.5 µM [inhibitor, single point]
Cc1c(C(=O)Nc2ccc(Cl)cn2)oc2ccccc12 | inconclusive: 3.16 µM [activator, full curve, poor fit]
Cc1cc(C)cc(NC(=O)C2(c3ccccc3)CC2(Cl)Cl)c1 (centres undefined) | inconclusive: 14.6 µM [inhibitor, partial curve]
O=C(Cc1ccc(S(=O)(=O)N2CCOCC2)s1)Nc1ccccc1N1CCOCC1 | inconclusive: 6.31 µM [inhibitor, single point]
Cc1ccc(-n2nc(C)c3c2OC(N)=C(C#N)C3c2ccc(F)cc2)cc1 (centres undefined) | inconclusive: 4.61 µM [activator, single point]
O=C(Oc1coc(CSc2nnc(NC(=O)C3CC3)s2)cc1=O)c1ccccc1 | inconclusive: 0.708 µM [activator, partial curve, poor fit]
Cc1cc2c(NC(=O)Nc3ccccc3)cccc2nn1 | inactive
Cc1ccc(-c2cc(C(=O)Nc3c(C)n(C)n(-c4ccccc4)c3=O)[nH]n2)c(O)c1 | inconclusive: 8.2 µM [inhibitor, partial curve, poor fit]
CCOc1ccccc1NC(=O)CSc1nncc2ccccc12 | inconclusive: 35.5 µM [inhibitor, single point]
CN(CC(=O)Nc1ccc(Cl)c(C(F)(F)F)c1)C(=O)C1CC(=O)N(CCc2ccccc2)C1 (centres undefined) | inconclusive: 11.2 µM [inhibitor, single point]

SMILES | Potency
CCOC(=O)NC(=O)COC(=O)c1ccc(Sc2ncn[nH]2)c([N+](=O)[O-])c1 | inconclusive: 14.1 µM [activator, single point]
Cc1ccc(N2CCN(C(=O)N3CCOCC3)CC2)cc1C | inactive
CNc1c(NS(=O)(=O)c2ccc(Cl)s2)c(=O)oc2ccccc12 | inactive
CCC(C)NC(=O)c1cc2cc3ccc(OC)cc3nc2o1 (centres undefined) | inconclusive: 1.12 µM [activator, partial curve, poor fit]
CCN1CCCC(OC(=O)c2cc(-c3ccc(C)cc3)nc3ccccc23)C1 (centres undefined) | inconclusive: 35.5 µM [inhibitor, single point]
Cc1ccc(N2C(N)=C(C#N)C(c3cccs3)C3=C2CC(C)(C)CC3=O)cc1 (centres undefined) | inconclusive: 16.4 µM [inhibitor, single point]
O=C(Cc1ccc([N+](=O)[O-])cc1)NNC(=O)c1cccs1 | inconclusive: 4.47 µM [inhibitor, single point]
NN=C(NN=Cc1ccccc1)c1ccccc1 | inactive
CN(CC(=O)Nc1ccc(F)cc1)c1ccc(S(=O)(=O)N2CCCCC2)cc1[N+](=O)[O-] | inconclusive: 35.5 µM [inhibitor, single point]
Cn1cccc1C(=O)N1CCN(S(=O)(=O)c2ccccc2)CC1 | inactive
CCC(C)c1ccc2oc(-c3ccc(NC(=O)c4cc5ccccc5o4)cc3)nc2c1 (centres undefined) | inconclusive: 35.5 µM [activator, single point]
N#CC1(NC(=O)COc2ccc3ccc(=O)oc3c2)CCCCC1 | inactive
CC(C)CC(c1nnnn1C(C)(C)C)N1CCN(C2CCCC2)CC1 (centres undefined) | inconclusive: 7.08 µM [inhibitor, full curve]
N#C/C(=C\c1ccc(N2CCOCC2)cc1)c1ccccc1 | inconclusive: 14.1 µM [inhibitor, single point]
O=[N+]([O-])c1ccc(CSc2nnc(Cc3ccccc3)n2-c2ccc(F)cc2)cc1 | inconclusive: 1 µM [inhibitor, single point]
COC(=O)c1ccc(NC(=O)CSc2nc3ncccc3[nH]2)cc1 | inconclusive: 20 µM [inhibitor, single point]
COc1ccc2c(c1O)-c1cccc3c1C(C2)N(C)CC3 (centres undefined) | active: 1 µM
O=C(CN1CCNCC1)Nc1ccc(Oc2ccccc2)cc1 | inconclusive: 29.1 µM [inhibitor, single point]
CCc1nnc(NC(=O)Cc2ccc(OCc3c(C)noc3C)cc2)s1 | inconclusive: 31.6 µM [inhibitor, single point]
Cc1cc([N+](=O)[O-])ccc1N | inconclusive: 2.24 µM [activator, partial curve, poor fit]
COc1ccccc1/C=C(/C(=O)OCC(N)=O)c1ccccc1 | inactive
O=C(NNC(=O)c1cccc2ccccc12)c1ccco1 | inactive
O=C(CCCOc1ccccc1)Nc1ccc(Br)cc1 | inconclusive: 35.5 µM [inhibitor, single point]

A different layout for part of the listing above.
SMILES,Potency
O=C(Cc1ccc([N+](=O)[O-])cc1)NNC(=O)c1cccs1,"inconclusive: 4.47 µM [inhibitor, single point]"
NN=C(NN=Cc1ccccc1)c1ccccc1,inactive
CN(CC(=O)Nc1ccc(F)cc1)c1ccc(S(=O)(=O)N2CCCCC2)cc1[N+](=O)[O-],"inconclusive: 35.5 µM [inhibitor, single point]"
Cn1cccc1C(=O)N1CCN(S(=O)(=O)c2ccccc2)CC1,inactive
CCC(C)c1ccc2oc(-c3ccc(NC(=O)c4cc5ccccc5o4)cc3)nc2c1 (centres undefined),"inconclusive: 35.5 µM [activator, single point]"
N#CC1(NC(=O)COc2ccc3ccc(=O)oc3c2)CCCCC1,inactive
CC(C)CC(c1nnnn1C(C)(C)C)N1CCN(C2CCCC2)CC1 (centres undefined),"inconclusive: 7.08 µM [inhibitor, full curve]"
N#C/C(=C\c1ccc(N2CCOCC2)cc1)c1ccccc1,"inconclusive: 14.1 µM [inhibitor, single point]"
O=[N+]([O-])c1ccc(CSc2nnc(Cc3ccccc3)n2-c2ccc(F)cc2)cc1,"inconclusive: 1 µM [inhibitor, single point]"
COC(=O)c1ccc(NC(=O)CSc2nc3ncccc3[nH]2)cc1,"inconclusive: 20 µM [inhibitor, single point]"
COc1ccc2c(c1O)-c1cccc3c1C(C2)N(C)CC3 (centres undefined),active: 1 µM
O=C(CN1CCNCC1)Nc1ccc(Oc2ccccc2)cc1,"inconclusive: 29.1 µM [inhibitor, single point]"
CCc1nnc(NC(=O)Cc2ccc(OCc3c(C)noc3C)cc2)s1,"inconclusive: 31.6 µM [inhibitor, single point]"
Cc1cc([N+](=O)[O-])ccc1N,"inconclusive: 2.24 µM [activator, partial curve, poor fit]"
COc1ccccc1/C=C(/C(=O)OCC(N)=O)c1ccccc1,inactive
O=C(NNC(=O)c1cccc2ccccc12)c1ccco1,inactive

Random excerpt: two entries already listed, in no set order.
SMILES | Potency
Cc1ccc(-c2cc(C(=O)Nc3c(C)n(C)n(-c4ccccc4)c3=O)[nH]n2)c(O)c1 | inconclusive: 8.2 µM [inhibitor, partial curve, poor fit]
CN(C)c1ccc(C2CC(c3cccc(NS(C)(=O)=O)c3)=NN2C(=O)c2ccccc2)cc1 (centres undefined) | inconclusive: 12.6 µM [inhibitor, partial curve, poor fit]

Further structures follow:

SMILES | Potency
CCn1c(SCC(=O)Nc2ccc3c(c2)OCO3)nnc1-c1ccccc1O | inconclusive: 7.3 µM [inhibitor, single point]
CC1(C)CC(=O)C2=C(C1)Oc1nc3ccccc3cc1[C@H]2C(C#N)C#N | inconclusive: 15.8 µM [inhibitor, partial curve, poor fit]
CCOc1ccc(C(=O)Nc2cccc(-c3nc4ccccc4[nH]3)c2C)cc1[N+](=O)[O-] | inactive
CC(=O)c1c(C)c[nH]c1C | inconclusive: 3.16 µM [activator, single point]
COc1ccc(OC(C)C(=O)Nc2cccc(F)c2)cc1 (centres undefined) | inconclusive: 31.6 µM [inhibitor, single point]
COc1cccc(CN2CCN(C(=O)c3cccc4ccccc34)CC2)c1OC | inactive and inconclusive: 29.1 µM [inhibitor, single point]
O=C(COC(=O)c1ccccc1Cl)Nc1nccs1 | inactive
O=C(CCc1c[nH]c2ccccc12)NCCc1ccc2c(c1)OCCO2 | inactive
CC1(C)Cc2c(cnn2-c2cccc(F)c2)C(NC(=O)CCN2CCCC2=O)C1 (centres undefined) | inactive
CCN1C(=O)C(CC(=O)Nc2ccc(OC)cc2)N(CCc2ccc(F)cc2)C1=S (centres undefined) | inconclusive: 12.6 µM [inhibitor, partial curve, poor fit]
O=S(=O)(NNc1ccc(Cl)nn1)c1ccc(F)cc1 | inconclusive: 0.562 µM [activator, single point]
Cc1ccc(C(=O)Nc2cc(Cl)ccc2-n2cncn2)s1 | inactive
CCn1ccnc1C[C@@H]1COc2ccccc2O1 | inconclusive: 7.3 µM [inhibitor, partial curve, poor fit]
Cc1nnc(SCC2=C(C(=O)O)N3C(=O)C(NC(=O)c4cccc(F)c4F)C3SC2)s1 (centres undefined) | inactive
O=C1c2ccccc2NC(c2cccc(O)c2)N1NS(=O)(=O)c1ccccc1 (centres undefined) | inconclusive: 7.08 µM [inhibitor, partial curve, poor fit]
Nc1ccc(CSc2ccc(Cl)cc2)cc1 | inactive
O=C(c1cccc(S(=O)(=O)NCc2ccccc2)c1)N1CCN(c2cccc(C(F)(F)F)c2)CC1 | inconclusive: 11.2 µM [inhibitor, partial curve]
CCOc1cccc(NC(=O)C2CC(=O)N(CC)C(=Nc3ccc(F)cc3)S2)c1 (centres undefined) | inconclusive: 6.31 µM [inhibitor, single point]
CCN(CC)C(=O)c1ccc2nc(-c3ccccc3)c(-c3ccccc3)nc2c1 | inactive
CCN(CC)C(=O)Cn1cnc2sc(C(=O)N3CCN(c4ccc(OC)cc4)CC3)c(C)c2c1=O | inconclusive: 4.11 µM [inhibitor, single point]
O=C1c2ccccc2C(=O)N1n1cccc1 | inconclusive: 0.158 µM [inhibitor, full curve, poor fit]
CCN(CC)S(=O)(=O)c1ccc2c(c1)N(CC(=O)Nc1ccccc1F)C(=O)C1CCCN21 (centres undefined) | inactive
CC(C)(C)c1ccc(/C=C/C(=O)Nc2ccc(S(N)(=O)=O)cc2)cc1 | inconclusive: 35.5 µM [inhibitor, single point]
